The text below walks through data of publication doi:10.1101/2023.09.10.557050 (bioRxiv, 2023).

No constants are given. Whether binding was seen depends on the method and setting. Some binding calls cover weakened binding; strength is not graded here.

In this test the target is T1, EcNhaA WT-like triple mutant (A109T, Q277G, L296M) (E. coli), P13738.
T1 chain: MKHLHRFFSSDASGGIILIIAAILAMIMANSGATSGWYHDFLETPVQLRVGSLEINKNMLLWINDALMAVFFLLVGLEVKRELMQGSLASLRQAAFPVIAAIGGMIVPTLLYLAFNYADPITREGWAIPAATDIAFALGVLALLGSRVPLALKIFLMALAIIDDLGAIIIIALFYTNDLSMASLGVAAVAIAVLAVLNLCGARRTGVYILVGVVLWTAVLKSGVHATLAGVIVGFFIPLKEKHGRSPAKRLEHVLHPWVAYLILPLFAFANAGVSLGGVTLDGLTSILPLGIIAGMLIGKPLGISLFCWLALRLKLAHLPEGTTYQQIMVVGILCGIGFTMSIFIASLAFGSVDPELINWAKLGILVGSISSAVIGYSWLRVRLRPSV
The test can be described thus: cryo-EM structure. To be noted: remark: other sources report otherwise.

B1: EcNhaA WT-like triple mutant (A109T, Q277G, L296M), P13738 1-388 (natural protein)
chain: MKHLHRFFSSDASGGIILIIAAILAMIMANSGATSGWYHDFLETPVQLRVGSLEINKNMLLWINDALMAVFFLLVGLEVKRELMQGSLASLRQAAFPVIAAIGGMIVPTLLYLAFNYADPITREGWAIPAATDIAFALGVLALLGSRVPLALKIFLMALAIIDDLGAIIIIALFYTNDLSMASLGVAAVAIAVLAVLNLCGARRTGVYILVGVVLWTAVLKSGVHATLAGVIVGFFIPLKEKHGRSPAKRLEHVLHPWVAYLILPLFAFANAGVSLGGVTLDGLTSILPLGIIAGMLIGKPLGISLFCWLALRLKLAHLPEGTTYQQIMVVGILCGIGFTMSIFIASLAFGSVDPELINWAKLGILVGSISSAVIGYSWLRVRLRPSV
As for B1, the binding entry is on record as “binds”.
